PubChem BioAssay AID1224828, NIAID – 2016

Assay: 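Regulators linking TLR4 signalling to p65 nuclear translocation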 (primary screen)
System: mouse RAW264.7 G9 macrophage reporter cells (GFP-p65, Tnf promoter-mCherry)
Knock-down reagent: siRNA pool against mouse genes, 100 nM
Time to read-out: 2 days siRNA transfection, then 40 min LPS before fixation
Conditions: LPS (Salmonella minnesota R595) at 10 ng/ml
Read-out: 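Microscopy ratio of nuclear to perinuclear-ring GFP-p65 signal, scaled to the plate median; gene score is the average of two replicate robust z-scores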
Reading the numbers: p65 translocation robust z-score: higher = more nuclear NF-kappaB p65 after LPS than the plate median; nuclear/cytoplasmic p65 ratio: higher = more nuclear NF-kappaB p65
Hit rule: 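Called active when z exceeds 3.3 or falls under -1.56 (median of Tlr4 controls), giving activity score of at least 50; no calls for control wells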
Calls: active = hit (p65 shift raised or lowered); inactive = no clear change
The whole screen tested about 17,000 reagents; this is a random part of them. Of all reagents, 762 (4.5%) got an active call. 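Active calls include both raised and lowered p65 entry, mostly lowered; wells with fewer than 50 cells lack a z-score.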 Raw values vary from plate to plate and are shown uncorrected. Entries without a mark were called inactive. A reagent listed more than once was tested more than once; the source does not tell the runs apart.

Osmr (oncostatin M receptor) — p65 translocation robust z-score: 0.03; nuclear/cytoplasmic p65 ratio, rep 1: 1.47; nuclear/cytoplasmic p65 ratio, rep 2: 1.4; low cell count flag: enough cells to score
Phlda3 (pleckstrin homology like domain, family A, member 3) — p65 translocation robust z-score: 1.58; nuclear/cytoplasmic p65 ratio, rep 1: 1.65; nuclear/cytoplasmic p65 ratio, rep 2: 1.68; low cell count flag: enough cells to score
Pafah1b2 — p65 translocation robust z-score: -1.16; nuclear/cytoplasmic p65 ratio, rep 1: 1.31; nuclear/cytoplasmic p65 ratio, rep 2: 1.24; low cell count flag: enough cells to score
Gpr151 (G protein-coupled receptor 151) — p65 translocation robust z-score: -1.25; nuclear/cytoplasmic p65 ratio, rep 1: 1.33; nuclear/cytoplasmic p65 ratio, rep 2: 1.4; low cell count flag: enough cells to score
Cyp3a41a (cytochrome P450, family 3, subfamily a, polypeptide 41A) — p65 translocation robust z-score: 1.18; nuclear/cytoplasmic p65 ratio, rep 1: 1.71; nuclear/cytoplasmic p65 ratio, rep 2: 2.03; low cell count flag: enough cells to score
Noa1 (nitric oxide associated 1) — p65 translocation robust z-score: -1.26; nuclear/cytoplasmic p65 ratio, rep 1: 1.36; nuclear/cytoplasmic p65 ratio, rep 2: 1.29; low cell count flag: enough cells to score
Hpn (hepsin) — p65 translocation robust z-score: -0.11; nuclear/cytoplasmic p65 ratio, rep 1: 1.78; nuclear/cytoplasmic p65 ratio, rep 2: 1.39; low cell count flag: enough cells to score
Il13ra2 (interleukin 13 receptor, alpha 2) — p65 translocation robust z-score: 0.97; nuclear/cytoplasmic p65 ratio, rep 1: 1.48; nuclear/cytoplasmic p65 ratio, rep 2: 1.58; low cell count flag: enough cells to score
Acad10 (acyl-Coenzyme A dehydrogenase family, member 10) — p65 translocation robust z-score: 0.17; nuclear/cytoplasmic p65 ratio, rep 1: 1.74; nuclear/cytoplasmic p65 ratio, rep 2: 1.38; low cell count flag: enough cells to score
Acad10 (acyl-Coenzyme A dehydrogenase family, member 10) — p65 translocation robust z-score: 0.16; nuclear/cytoplasmic p65 ratio, rep 1: 1.42; nuclear/cytoplasmic p65 ratio, rep 2: 1.2; low cell count flag: enough cells to score
Mier3 (MIER family member 3) — p65 translocation robust z-score: 0.66; nuclear/cytoplasmic p65 ratio, rep 1: 1.54; nuclear/cytoplasmic p65 ratio, rep 2: 1.47; low cell count flag: enough cells to score

Sorted by “nuclear/cytoplasmic p65 ratio, rep 1” (high to low): 2 of the entries above
Phlda3 (pleckstrin homology like domain, family A, member 3) — p65 translocation robust z-score: 1.58; nuclear/cytoplasmic p65 ratio, rep 1: 1.65; nuclear/cytoplasmic p65 ratio, rep 2: 1.68; low cell count flag: enough cells to score
Osmr (oncostatin M receptor) — p65 translocation robust z-score: 0.03; nuclear/cytoplasmic p65 ratio, rep 1: 1.47; nuclear/cytoplasmic p65 ratio, rep 2: 1.4; low cell count flag: enough cells to score

More records:
H2-Eb1 (histocompatibility 2, class II antigen E beta) — p65 translocation robust z-score: 1.17; nuclear/cytoplasmic p65 ratio, rep 1: 1.44; nuclear/cytoplasmic p65 ratio, rep 2: 1.67; low cell count flag: enough cells to score
Cfap418 (cilia and flagella associated protein 418) — nuclear/cytoplasmic p65 ratio, rep 1: 1.09; nuclear/cytoplasmic p65 ratio, rep 2: 1.14; low cell count flag: fewer than 50 cells per well; well left out of scoring
Trp53rka (transformation related protein 53 regulating kinase A) — p65 translocation robust z-score: -0.81; nuclear/cytoplasmic p65 ratio, rep 1: 1.51; nuclear/cytoplasmic p65 ratio, rep 2: 1.31; low cell count flag: enough cells to score
Mesp1 (mesoderm posterior 1) — p65 translocation robust z-score: -0.74; nuclear/cytoplasmic p65 ratio, rep 1: 1.61; nuclear/cytoplasmic p65 ratio, rep 2: 1.51; low cell count flag: enough cells to score
Spink10 (serine peptidase inhibitor, Kazal type 10) — nuclear/cytoplasmic p65 ratio, rep 1: 1.37; nuclear/cytoplasmic p65 ratio, rep 2: 1.61; low cell count flag: fewer than 50 cells per well; well left out of scoring
Agr2 (anterior gradient 2) — p65 translocation robust z-score: -0.48; nuclear/cytoplasmic p65 ratio, rep 1: 1.58; nuclear/cytoplasmic p65 ratio, rep 2: 1.56; low cell count flag: enough cells to score
Tln1 (talin 1) — nuclear/cytoplasmic p65 ratio, rep 1: 1.38; nuclear/cytoplasmic p65 ratio, rep 2: 1.18; low cell count flag: fewer than 50 cells per well; well left out of scoring
Flrt2 (fibronectin leucine rich transmembrane protein 2) — p65 translocation robust z-score: 0.21; nuclear/cytoplasmic p65 ratio, rep 1: 1.47; nuclear/cytoplasmic p65 ratio, rep 2: 1.63; low cell count flag: enough cells to score
Gtf2i (general transcription factor II I) — p65 translocation robust z-score: 1.14; nuclear/cytoplasmic p65 ratio, rep 1: 1.9; nuclear/cytoplasmic p65 ratio, rep 2: 1.54; low cell count flag: enough cells to score
Kcnh7 — p65 translocation robust z-score: 0.55; nuclear/cytoplasmic p65 ratio, rep 1: 1.55; nuclear/cytoplasmic p65 ratio, rep 2: 1.45; low cell count flag: enough cells to score
Bbs4 (Bardet-Biedl syndrome 4) — p65 translocation robust z-score: 1.13; nuclear/cytoplasmic p65 ratio, rep 1: 1.74; nuclear/cytoplasmic p65 ratio, rep 2: 1.82; low cell count flag: enough cells to score
Actn4 (actinin alpha 4) — p65 translocation robust z-score: 0.27; nuclear/cytoplasmic p65 ratio, rep 1: 1.62; nuclear/cytoplasmic p65 ratio, rep 2: 1.7; low cell count flag: enough cells to score
Rrp36 (ribosomal RNA processing 36) — p65 translocation robust z-score: 0.59; nuclear/cytoplasmic p65 ratio, rep 1: 1.58; nuclear/cytoplasmic p65 ratio, rep 2: 2.04; low cell count flag: enough cells to score
Alox15 (arachidonate 15-lipoxygenase) — p65 translocation robust z-score: 0.64; nuclear/cytoplasmic p65 ratio, rep 1: 1.72; nuclear/cytoplasmic p65 ratio, rep 2: 1.76; low cell count flag: enough cells to score
Bcl10 (B cell leukemia/lymphoma 10) — p65 translocation robust z-score: 0.76; nuclear/cytoplasmic p65 ratio, rep 1: 1.64; nuclear/cytoplasmic p65 ratio, rep 2: 1.81; low cell count flag: enough cells to score
Mettl25 (methyltransferase like 25) — nuclear/cytoplasmic p65 ratio, rep 1: 1.49; nuclear/cytoplasmic p65 ratio, rep 2: 1.62; low cell count flag: fewer than 50 cells per well; well left out of scoring
